Patent publication US20050130227A1 (MUNIN, published 2005)
Construct, isoform or probe ends are uncertain for at least one entry. Where cells or extracts were used, other partners may take part. A negative result means that nothing was seen under these conditions.

Chains of the proteins cited; added tags and fusions are not shown. Chains listed by the source or under a name are the forms on record and can include a tag or linker.
mGPBP cDNA clone product (lambda gt11 fusion) (Mus musculus), one chain, as listed by the source: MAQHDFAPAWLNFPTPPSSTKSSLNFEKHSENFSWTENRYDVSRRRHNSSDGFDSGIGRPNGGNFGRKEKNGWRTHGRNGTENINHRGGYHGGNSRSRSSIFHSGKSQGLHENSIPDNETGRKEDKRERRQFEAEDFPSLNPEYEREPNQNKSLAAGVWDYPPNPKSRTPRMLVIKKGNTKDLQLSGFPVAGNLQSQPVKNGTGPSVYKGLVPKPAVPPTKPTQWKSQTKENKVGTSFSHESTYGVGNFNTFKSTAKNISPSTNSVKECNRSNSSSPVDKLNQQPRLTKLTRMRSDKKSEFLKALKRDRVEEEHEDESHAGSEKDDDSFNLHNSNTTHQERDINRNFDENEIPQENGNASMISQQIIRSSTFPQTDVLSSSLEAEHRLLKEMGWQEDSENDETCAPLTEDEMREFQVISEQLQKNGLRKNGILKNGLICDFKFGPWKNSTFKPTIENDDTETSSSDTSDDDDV

Tested on: mGPBP cDNA clone product (lambda gt11 fusion) (Mus musculus)
Assay: binding assay
Conditions: negative control probe in library screen; clones binding it were eliminated; protein in a lysate after overexpression; protein details: lambda gt11 expression library clone, partial cDNA

“TGGGCGGGGC (double strand) [Sp1 consensus motif probe]”: no binding.
